Experimental data: PubChem BioAssay AID686937 (Drosophila RNAi Screening Center, 2013)

Purpose: 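Knock-downs that reduce output of a secreted reporter enzyme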 (primary screen)
System: Drosophila S2 cells expressing secreted horseradish peroxidase
Reagents: long dsRNA against Drosophila genes
Timing: about 5.5 days (5 days dsRNA, then 12 h reporter induction)
Challenge: reporter expression induced after 5 days of dsRNA, read 12 h later; inducer not stated
Detection: 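After 5 days of dsRNA and 12 h of reporter induction, medium peroxidase read by chemiluminescence and scored as per-plate z-score; higher values mean more reporter released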
Reading the numbers: z-score: higher = more reporter secreted into medium
The screen tested about 23,000 reagents; this is a random part of those that have a named target and a result. 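Reduced-secretion tags in replicate 1 do not always agree with the z-scores; no criterion for assigning the tags was given.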 The numbers tell different reagents against one gene apart. Not given: the amount of reagent.

gene | dsRNA no. | z-score, replicate 1 | z-score, replicate 2 | z-score, replicate 3 | z-score, replicate 4 | phenotype, replicate 1
BomT2 (GeneID 50208) | 1 | 0.4 | 0.18 | – | – | –
CR30409 (GeneID 37696) | 1 | 0.27 | -0.52 | – | – | –
mRpS18A (GeneID 326141) | 1 | -0.31 | -0.48 | – | – | –
ND-23 (GeneID 44207) | 1 | 0.11 | -0.02 | – | – | –
Vps52 (GeneID 33774) | 1 | 0.14 | 0.23 | – | – | –
CG11670 (GeneID 41608) | 1 | 0.43 | 0.64 | – | – | –
CG32023 (GeneID 317827) | 1 | -0.15 | -0.04 | – | – | –
eIF4EHP (GeneID 326255) | 1 | 0.53 | 0.52 | – | – | –
eIF4EHP (GeneID 326255) | 2 | 0.14 | 0.17 | – | – | –
CG3702 (GeneID 33628) | 1 | 0.33 | 0.29 | – | – | –
spict (GeneID 34681) | 1 | 0.21 | 0.35 | – | – | –
CG14424 (GeneID 31279) | 1 | -0.1 | -0.02 | – | – | –
EMC6 (GeneID 42992) | 1 | -0.12 | -0.12 | – | – | –
trx (GeneID 41737) | 1 | 0.41 | 0.26 | – | – | –
CG2772 (GeneID 33559) | 1 | -0.23 | 0.17 | – | – | –
alt (GeneID 42127) | 1 | 0.47 | 0.61 | – | – | –
rho-7 (GeneID 36281) | 1 | 0.32 | 0.47 | – | – | –
Vm32E (GeneID 34558) | 1 | -0.3 | -0.09 | – | – | –
CG13018 (GeneID 50224) | 1 | 0.23 | 0.43 | – | – | –
CG8476 (GeneID 41624) | 1 | 0.15 | 0.29 | – | – | –
Tif-IA (GeneID 35454) | 1 | -0.11 | -0.42 | – | – | –
Tif-IA (GeneID 35454) | 2 | -0.71 | -0.76 | – | – | –
lncRNA:CR43451 (GeneID 12798473) | 1 | 0.27 | 0.24 | – | – | –
CG12929 (GeneID 35987) | 1 | 0.15 | 0.44 | – | – | –
CG14245 (GeneID 3772449) | 1 | 0.54 | 0.41 | – | – | –
CG13436 (GeneID 37334) | 1 | 0.57 | 0.34 | – | – | –
yellow-g2 (GeneID 38295) | 1 | 0.3 | 0.14 | – | – | –
Dci (GeneID 38100) | 1 | 0.72 | 0.4 | – | – | –
Men (GeneID 47173) | 1 | 0.18 | 0.38 | – | – | –
Men (GeneID 47173) | 2 | 0.32 | 0.04 | 0.31 | 0.29 | –
Men (GeneID 47173) | 3 | 1.65 | 0.77 | – | – | –
Herp (GeneID 34065) | 1 | 0.26 | 0.4 | – | – | –
CG6867 (GeneID 32782) | 1 | 0.16 | 0.41 | -0.52 | -0.04 | –
CG17633 (GeneID 34297) | 1 | 0.17 | 0.12 | – | – | –
5-HT1A (GeneID 37196) | 1 | 0.36 | 0.41 | – | – | –
Coa8 (GeneID 31148) | 1 | 0.13 | 0.34 | – | – | –
CG14022 (GeneID 33763) | 1 | 0.04 | 0.08 | – | – | –
subdued (GeneID 42340) | 1 | 0.31 | 0.18 | – | – | –
CG8840 (GeneID 33557) | 1 | 0.28 | 0.26 | – | – | –
tamo (GeneID 37864) | 1 | 0.29 | 0.41 | – | – | –
frm (GeneID 38624) | 1 | 0.12 | 0.43 | -0.32 | -0.68 | –
Csas (GeneID 317923) | 1 | 0.63 | 0.46 | – | – | –
kar (GeneID 45883) | 1 | 0.27 | 0.23 | – | – | –
RpL36A (GeneID 34098) | 1 | -1.76 | -4.12 | – | – | reduced secretion
Optix (GeneID 44108) | 1 | 0.47 | -0.11 | 0.03 | – | –
Optix (GeneID 44108) | 2 | 0.45 | 0.35 | – | – | –
Optix (GeneID 44108) | 3 | -0.12 | 0.36 | – | – | –
Jabba (GeneID 37164) | 1 | 0.12 | 0.16 | – | – | –
qm (GeneID 38816) | 1 | 0.13 | -0.04 | – | – | –
CG15894 (GeneID 31574) | 1 | 0.47 | 0.39 | – | – | –
CG15894 (GeneID 31574) | 2 | -2.35 | -1.81 | – | – | reduced secretion
trc (GeneID 40165) | 1 | 0.35 | 0.64 | – | – | –
CG9813 (GeneID 41644) | 1 | 0.21 | 0.29 | – | – | –
Or45a (GeneID 35958) | 1 | 0.08 | 0.24 | – | – | –
ItgaPS4 (GeneID 36693) | 1 | -0.01 | 0.27 | – | – | –
CG6026 (GeneID 42287) | 1 | 0.45 | 0.6 | – | – | –

No new results follow: an excerpt of the list.
gene | dsRNA no. | z-score, replicate 1 | z-score, replicate 2 | z-score, replicate 3 | z-score, replicate 4 | phenotype, replicate 1
CG14424 (GeneID 31279) | 1 | -0.1 | -0.02 | – | – | –
EMC6 (GeneID 42992) | 1 | -0.12 | -0.12 | – | – | –
trx (GeneID 41737) | 1 | 0.41 | 0.26 | – | – | –
CG2772 (GeneID 33559) | 1 | -0.23 | 0.17 | – | – | –
alt (GeneID 42127) | 1 | 0.47 | 0.61 | – | – | –
rho-7 (GeneID 36281) | 1 | 0.32 | 0.47 | – | – | –
Vm32E (GeneID 34558) | 1 | -0.3 | -0.09 | – | – | –
